The other results are listed elsewhere or left out.
Key:
Experiment in all cases: log2 fold change, soluble protein after heating vs DMSO (PISA); higher = thermal stabilisation; K562 cells, 10 uM, 30 min; active = over 0.2 and 3.5 SD of the protein, either way, in both replicates (recomputed)
[1] = compound: NC(=O)Nc1cc(-c2cccc(F)c2)sc1C(=O)N[C@H]1CCCNC1
Summary of the method: (§1)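 Quantification of soluble protein used TMTpro 16plex LC-MS/MS, with channel sums equalised. Samples were the supernatant after 21,000xg for 90 min of pooled aliquots from K562 cells (2×10^6 cells/mL) treated with 10 μM compound for 30 min, heated for 3 min over 48°C-58°C, and extracted in PBS with 0.5% NP-40 at 4°C. Values, from duplicates, describe thermal stability against control samples on a log2 fold-change scale.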

Sequences of proteins named here, by UniProt entry; tags and fusion partners are left off. A change or cut given only in a name is not applied to a line headed by its entry.
UniProt Q969T7: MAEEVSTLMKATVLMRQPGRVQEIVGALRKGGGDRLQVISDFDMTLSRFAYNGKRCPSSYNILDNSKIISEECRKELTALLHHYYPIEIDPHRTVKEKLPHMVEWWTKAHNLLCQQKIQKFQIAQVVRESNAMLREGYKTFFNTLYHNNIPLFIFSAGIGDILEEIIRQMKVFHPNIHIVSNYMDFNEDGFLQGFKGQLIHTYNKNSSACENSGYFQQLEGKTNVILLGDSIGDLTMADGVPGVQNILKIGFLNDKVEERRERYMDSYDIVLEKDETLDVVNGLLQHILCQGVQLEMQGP
UniProt Q96CV9, whole entry, looked up: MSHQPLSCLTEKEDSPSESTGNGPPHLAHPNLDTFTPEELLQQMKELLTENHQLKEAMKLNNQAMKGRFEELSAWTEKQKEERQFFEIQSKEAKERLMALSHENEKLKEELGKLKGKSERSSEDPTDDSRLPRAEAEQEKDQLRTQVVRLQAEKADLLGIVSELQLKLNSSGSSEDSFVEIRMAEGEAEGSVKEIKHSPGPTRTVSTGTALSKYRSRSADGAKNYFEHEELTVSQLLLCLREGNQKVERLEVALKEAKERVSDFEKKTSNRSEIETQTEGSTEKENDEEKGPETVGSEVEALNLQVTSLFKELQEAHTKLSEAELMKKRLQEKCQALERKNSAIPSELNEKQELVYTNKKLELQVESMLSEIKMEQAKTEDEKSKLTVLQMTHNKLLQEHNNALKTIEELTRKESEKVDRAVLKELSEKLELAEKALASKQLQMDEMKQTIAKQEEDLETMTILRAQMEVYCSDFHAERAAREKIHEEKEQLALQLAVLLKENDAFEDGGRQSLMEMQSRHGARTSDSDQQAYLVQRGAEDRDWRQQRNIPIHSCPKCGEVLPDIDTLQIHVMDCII
UniProt Q9Y266: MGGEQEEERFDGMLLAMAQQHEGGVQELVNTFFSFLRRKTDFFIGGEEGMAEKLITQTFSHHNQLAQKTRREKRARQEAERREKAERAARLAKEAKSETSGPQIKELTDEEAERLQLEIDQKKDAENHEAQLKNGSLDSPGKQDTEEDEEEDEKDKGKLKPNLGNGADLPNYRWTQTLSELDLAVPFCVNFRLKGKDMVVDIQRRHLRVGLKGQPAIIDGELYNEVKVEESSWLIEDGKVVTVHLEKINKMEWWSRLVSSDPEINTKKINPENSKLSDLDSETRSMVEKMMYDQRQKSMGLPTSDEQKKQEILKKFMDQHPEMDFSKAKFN
UniProt Q6GQQ9: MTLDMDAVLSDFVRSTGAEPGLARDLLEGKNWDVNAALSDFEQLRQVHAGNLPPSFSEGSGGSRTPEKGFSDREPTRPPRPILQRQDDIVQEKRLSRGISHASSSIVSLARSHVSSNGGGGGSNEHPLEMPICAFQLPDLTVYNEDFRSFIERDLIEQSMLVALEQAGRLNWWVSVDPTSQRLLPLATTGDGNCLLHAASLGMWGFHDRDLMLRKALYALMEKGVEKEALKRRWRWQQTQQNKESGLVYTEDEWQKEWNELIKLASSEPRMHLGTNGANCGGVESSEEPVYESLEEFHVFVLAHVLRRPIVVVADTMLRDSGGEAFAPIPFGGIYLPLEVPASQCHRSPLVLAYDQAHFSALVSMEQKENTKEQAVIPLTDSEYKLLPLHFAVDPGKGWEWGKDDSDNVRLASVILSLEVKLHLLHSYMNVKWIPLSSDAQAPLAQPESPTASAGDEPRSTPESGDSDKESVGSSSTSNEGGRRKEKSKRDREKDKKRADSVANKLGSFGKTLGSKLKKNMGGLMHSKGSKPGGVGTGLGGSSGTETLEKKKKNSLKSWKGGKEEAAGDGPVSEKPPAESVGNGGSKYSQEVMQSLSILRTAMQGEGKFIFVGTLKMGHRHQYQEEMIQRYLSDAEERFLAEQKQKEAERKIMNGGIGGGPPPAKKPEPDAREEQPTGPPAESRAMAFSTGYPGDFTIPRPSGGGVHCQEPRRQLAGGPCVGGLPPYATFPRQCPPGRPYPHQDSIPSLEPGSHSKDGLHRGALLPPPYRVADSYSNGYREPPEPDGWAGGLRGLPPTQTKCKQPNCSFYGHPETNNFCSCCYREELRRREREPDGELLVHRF
UniProt Q9H4B0: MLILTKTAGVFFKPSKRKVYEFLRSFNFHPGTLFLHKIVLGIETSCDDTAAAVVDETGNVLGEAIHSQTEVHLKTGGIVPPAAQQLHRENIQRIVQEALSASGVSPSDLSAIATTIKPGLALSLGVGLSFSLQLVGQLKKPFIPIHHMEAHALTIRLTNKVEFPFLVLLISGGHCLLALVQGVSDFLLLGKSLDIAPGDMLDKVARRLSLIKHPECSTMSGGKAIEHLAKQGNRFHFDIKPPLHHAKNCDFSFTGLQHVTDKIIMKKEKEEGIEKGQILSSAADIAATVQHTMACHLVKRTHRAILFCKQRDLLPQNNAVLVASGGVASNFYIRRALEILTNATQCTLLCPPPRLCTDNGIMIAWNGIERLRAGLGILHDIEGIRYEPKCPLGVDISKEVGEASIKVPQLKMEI
UniProt Q99571: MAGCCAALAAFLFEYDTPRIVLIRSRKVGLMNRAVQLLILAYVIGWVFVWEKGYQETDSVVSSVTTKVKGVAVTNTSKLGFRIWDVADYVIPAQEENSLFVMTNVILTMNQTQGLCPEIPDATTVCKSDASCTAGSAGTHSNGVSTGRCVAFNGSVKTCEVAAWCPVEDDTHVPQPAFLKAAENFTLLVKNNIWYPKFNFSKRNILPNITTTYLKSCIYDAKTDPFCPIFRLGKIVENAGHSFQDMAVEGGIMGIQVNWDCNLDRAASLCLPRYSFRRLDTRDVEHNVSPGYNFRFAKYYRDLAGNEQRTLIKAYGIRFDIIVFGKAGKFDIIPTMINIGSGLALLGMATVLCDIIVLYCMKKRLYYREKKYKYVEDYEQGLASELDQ
UniProt Q92882: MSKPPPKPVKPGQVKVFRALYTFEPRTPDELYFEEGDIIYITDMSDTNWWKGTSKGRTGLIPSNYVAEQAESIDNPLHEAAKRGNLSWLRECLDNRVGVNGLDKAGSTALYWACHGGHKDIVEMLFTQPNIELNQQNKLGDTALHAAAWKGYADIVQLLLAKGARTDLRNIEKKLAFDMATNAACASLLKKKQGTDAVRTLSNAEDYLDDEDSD
UniProt Q9H4L5: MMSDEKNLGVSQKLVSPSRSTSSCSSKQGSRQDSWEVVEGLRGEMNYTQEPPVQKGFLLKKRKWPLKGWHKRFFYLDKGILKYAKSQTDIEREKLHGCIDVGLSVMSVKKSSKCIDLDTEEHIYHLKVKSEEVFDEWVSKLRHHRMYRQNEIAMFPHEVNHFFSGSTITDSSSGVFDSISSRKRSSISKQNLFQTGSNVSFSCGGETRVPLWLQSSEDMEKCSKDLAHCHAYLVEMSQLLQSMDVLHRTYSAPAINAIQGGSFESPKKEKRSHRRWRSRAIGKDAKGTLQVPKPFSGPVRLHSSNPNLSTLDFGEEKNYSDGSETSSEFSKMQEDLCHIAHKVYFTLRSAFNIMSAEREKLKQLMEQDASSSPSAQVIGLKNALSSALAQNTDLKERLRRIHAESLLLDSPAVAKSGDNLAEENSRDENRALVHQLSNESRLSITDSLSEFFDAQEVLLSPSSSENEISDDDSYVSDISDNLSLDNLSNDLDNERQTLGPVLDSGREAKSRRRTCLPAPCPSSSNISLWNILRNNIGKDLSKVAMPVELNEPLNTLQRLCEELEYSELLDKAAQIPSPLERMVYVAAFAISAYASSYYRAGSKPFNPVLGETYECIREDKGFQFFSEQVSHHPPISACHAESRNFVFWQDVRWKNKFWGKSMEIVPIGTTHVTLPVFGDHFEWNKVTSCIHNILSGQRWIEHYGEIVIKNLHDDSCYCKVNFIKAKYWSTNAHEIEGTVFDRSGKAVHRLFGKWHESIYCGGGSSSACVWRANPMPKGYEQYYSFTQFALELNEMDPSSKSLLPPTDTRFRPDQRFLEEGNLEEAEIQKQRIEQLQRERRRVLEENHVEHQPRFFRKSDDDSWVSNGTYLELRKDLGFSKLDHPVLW
UniProt O43913: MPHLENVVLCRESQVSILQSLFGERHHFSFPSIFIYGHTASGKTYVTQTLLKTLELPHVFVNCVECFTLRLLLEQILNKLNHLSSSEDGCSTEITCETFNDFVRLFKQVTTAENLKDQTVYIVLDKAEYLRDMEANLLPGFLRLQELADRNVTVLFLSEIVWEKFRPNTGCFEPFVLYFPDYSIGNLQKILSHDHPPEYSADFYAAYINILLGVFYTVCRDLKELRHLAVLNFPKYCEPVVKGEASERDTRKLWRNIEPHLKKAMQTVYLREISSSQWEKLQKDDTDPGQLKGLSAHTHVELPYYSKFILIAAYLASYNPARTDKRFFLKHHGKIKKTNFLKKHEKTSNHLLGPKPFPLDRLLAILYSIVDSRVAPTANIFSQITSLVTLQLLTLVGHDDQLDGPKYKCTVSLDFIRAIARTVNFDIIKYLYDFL

[2] = compound: NC(=O)c1cnc(N[C@@H]2CCCC[C@@H]2N)nc1Nc1cccc(-n2nccn2)c1
Summary of the method: as §1

[3] = compound: NC1(c2ccc(-c3nc4ccn5c(=O)[nH]nc5c4cc3-c3ccccc3)cc2)CCC1
Summary of the method: as §1

[4] = compound: NCC(=O)Nc1ccc(-n2nc(C(F)(F)F)cc2-c2ccc3c(ccc4ccccc43)c2)cc1
Summary of the method: as §1

entinostat = compound: Nc1ccccc1NC(=O)c1ccc(CNC(=O)OCc2cccnc2)cc1 [entinostat]
Summary of the method: as §1

vorinostat = compound: O=C(CCCCCCC(=O)Nc1ccccc1)NO [vorinostat]
Summary of the method: as §1

silmitasertib = compound: O=C(O)c1ccc2c(c1)nc(Nc1cccc(Cl)c1)c1ccncc12 [silmitasertib]
Summary of the method: as §1

[5] = compound: O=C1NC(=O)C(c2cnc3ccccn23)=C1c1cn2c3c(cc(F)cc13)CN(C(=O)N1CCCCC1)CC2
Summary of the method: as §1

citarinostat = compound: O=C(CCCCCCNC(=O)c1cnc(N(c2ccccc2)c2ccccc2Cl)nc1)NO [citarinostat]
Summary of the method: as §1

[6] = compound: c1cc(OCCN2CCCCC2)cc(-c2n[nH]c3ccc(-c4nnc[nH]4)cc23)c1
Summary of the method: as §1

Measured: log2 fold change

NT5C3B (UniProt Q969T7)
inactive: [1] -0.077 | [2] -0.038 | [3] -0.119 | [4] -0.161 | entinostat 0.121 | vorinostat 0 | silmitasertib 0.049

OPTN (UniProt Q96CV9)
inactive: [1] 0.01 | [2] -0.178 | [3] 0.113 | [4] -0.021 | entinostat 0.102 | vorinostat -0.073 | silmitasertib 0.331 | [5] 0.256

NUDC (UniProt Q9Y266)
inactive: [1] -0.044 | [2] -0.039 | [3] -0.084 | [4] -0.06 | entinostat 0.009 | vorinostat 0.018 | citarinostat -0.051 | silmitasertib -0.01 | [5] -0.055 | [6] 0.025

OTUD7B (UniProt Q6GQQ9)
inactive: [1] 0.027 | [2] -0.12 | [3] -0.174 | [4] -0.131 | entinostat 0.028 | vorinostat -0.026 | citarinostat 0.091 | silmitasertib 0.152 | [5] 0.06 | [6] 0.203

OSGEPL1 (UniProt Q9H4B0)
inactive: [1] 0.042 | [2] 0.138 | [4] 0.215 | entinostat 0.099 | vorinostat 0.095

P2RX4 isoform 2 (UniProt Q99571)
inactive: [1] -0.035 | [2] 0.004 | [3] -0.178 | [4] 0.346 | entinostat -0.065 | silmitasertib 0.162 | [5] 0.093

OSTF1 (UniProt Q92882)
inactive: [1] 0.016 | [2] -0.064 | [3] -0.115 | [4] -0.021 | entinostat -0.07 | vorinostat -0.011 | citarinostat 0.031 | silmitasertib 0.039 | [5] -0.116 | [6] -0.038

OSBPL3 (UniProt Q9H4L5)
inactive: [1] -0.079 | [2] -0.43 | [4] 0.106 | entinostat 0.077 | citarinostat -0.077 | [5] 0.307 | [6] -0.072

ORC5 (UniProt O43913)
inactive: [1] -0.322 | [2] -0.188 | [3] -0.253 | [4] -0.058 | entinostat -0.101 | vorinostat 0.139 | citarinostat 0.039 | silmitasertib -0.072 | [6] -0.004

From the supplement of paper PMC10849652
